Reference: PubChem BioAssay AID1259308 (NCATS, 2017)

Aim: 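Genes whose loss raises luciferase production in HEK293 cells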 (primary screen)
Cells: human HEK293 embryonic kidney cells stably expressing firefly luciferase (HEK-CMV-Luc2-Hygro)
Reagents: single siRNA against human genes, 0.8 pmol siRNA per well
Time to read-out: 72 h
Measured: 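Luciferase light (ONE-Glo) measured on one replicate plate set and viability (CellTiter-Glo) on the other, scaled to a negative control siRNA, with robust z-scores and luciferase per cell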
Direction: total luciferase, z-score and total luciferase, % of control: higher = more reporter protein produced; luciferase per cell, z-score: higher = more reporter output per viable cell; viable cells, % of control: higher = more viable cells
Hit rule: 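Active when the median/MAD z-score for overall luciferase is greater than 3; a gene was taken forward for validation with new siRNAs if at least two of its three siRNAs passed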
Calls: active = raised luciferase; inactive = no rise
Here is a random part of about 59,000 deposited reagents. About 1,510 of all reagents (2.6%) count as active. 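Calls use total luciferase alone and ignore viability, so some active siRNAs may act by altering cell number.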 The numbers tell different reagents against one gene apart.

gene knocked down	reagent no.	total luciferase, z-score	total luciferase, % of control	luciferase per cell, z-score	viable cells, % of control	outcome
C5orf15	1	0.576	93.3	0.883	82.7	inactive
C5orf15	2	0.0559	83	-0.0439	93.8	inactive
C5orf15	3	2.33	128	1.29	102	inactive
TRIM16L	1	-1.43	53.5	0.0443	59.1	inactive
TRIM16L	2	-1.46	52.9	-1.37	84.9	inactive
TRIM16L	3	-0.0621	80.7	-0.11	92.8	inactive
PAX5	1	0.0528	82.9	0.103	90.2	inactive
PAX5	2	0.0545	83	-0.0722	94.5	inactive
PAX5	3	-0.862	64.7	0.0248	71.9	inactive
TMEM14DP	1	1.29	108	0.448	107	inactive
TMEM14DP	2	-1.4	54.1	0.122	58.6	inactive
TMEM14DP	3	1.08	103	0.886	91.5	inactive
MFGE8	1	1.33	108	0.669	101	inactive
MFGE8	2	-0.525	71.4	-0.712	96.3	inactive
MFGE8	3	0.229	86.4	-0.0427	97.7	inactive

Sorted by “viable cells, % of control” (descending): 4 of the entries above
gene knocked down	reagent no.	total luciferase, z-score	total luciferase, % of control	luciferase per cell, z-score	viable cells, % of control	outcome
C5orf15	3	2.33	128	1.29	102	inactive
TRIM16L	3	-0.0621	80.7	-0.11	92.8	inactive
TRIM16L	2	-1.46	52.9	-1.37	84.9	inactive
TRIM16L	1	-1.43	53.5	0.0443	59.1	inactive

Next reagents follow.
gene knocked down	reagent no.	total luciferase, z-score	total luciferase, % of control	luciferase per cell, z-score	viable cells, % of control	outcome
MTM1	1	0.751	96.8	0.501	94.8	inactive
MTM1	2	-0.021	81.5	0.358	82.9	inactive
MTM1	3	1.01	102	0.605	97.1	inactive
RGS4	1	0.277	87.4	-0.695	117	inactive
RGS4	2	1.29	108	0.617	102	inactive
RGS4	3	-1.82	45.7	0.00424	51	inactive
CSNK1A1	1	-1.55	51.1	0.217	53.9	inactive
CSNK1A1	2	1.29	108	0.811	97.1	inactive
CSNK1A1	3	3.01	142	3.17	68.8	active
